The values below come from PubChem BioAssay.

The other results are listed elsewhere or left out. Results with a measured potency or affinity are listed apart. The source made no clear call on entries shown without one.

A short description of assay [1]: Drosophila SCA1 whole organism dose response for polyglutamine toxicity reduction (AID 1595). As to conditions: Drosophila SCA1 polyglutamine model, at 1 µM, stronger effect = higher value.
The nature of assay [2]: PubChem AID 1597. The settings on record: Drosophila SCA1 polyglutamine model, at 1 µM, stronger effect = higher value.

For `CCOc1ccc(Cc2nccc3cc(OCC)c(OCC)cc23)cc1OCC`, the suppression of toxicity in assay [1] and in assay [2] was 12.9 in each case.

As for `CC(C)NCC(O)COc1cccc2[nH]ccc12` (stereo unspecified), the suppression of toxicity in assay [1] was found to be 2.85; in assay [2], 6.43.

For `CC(=O)Nc1ccc(O)cc1`, the suppression of toxicity in assay [1] was 0; in assay [2], 0.715.

For `Nc1ncnc2c1ncn2C1OC(CO)[C@H](O)C1O` (stereo partly specified), the suppression of toxicity came out at 0 in assay [1] and 1.43 in assay [2].

On to `O=C(N[C@H](CO)[C@H](O)c1ccc([N+](=O)[O-])cc1)C(Cl)Cl`, for which the suppression of toxicity in assay [1] was determined as 1.43; in assay [2], 2.15.

For the compound `CC(=O)Oc1c(C)c(C)c2c(c1C)CCC(C)(CCCC(C)CCCC(C)CCCC(C)C)O2` (stereo unspecified), the suppression of toxicity came out at 5.71 in assay [1] and 7.86 in assay [2].

Regarding `C=CCSCC1Nc2cc(Cl)c(S(N)(=O)=O)cc2S(=O)(=O)N1` (stereo unspecified), the suppression of toxicity in assay [1] amounted to 0; in assay [2] it was 2.15.

Take `CCn1cc(C(=O)O)c(=O)c2cc3c(cc21)OCO3`: the figures for the suppression of toxicity in assay [1] and in assay [2] were 1.43 and 4.29, respectively.

As for `O=C(O)c1cc(=O)c2ccccc2[nH]1`, the suppression of toxicity was 1.43 in assay [1] and 8.57 in assay [2].

In the case of `C[N+](C)(C)CC(O)CC(=O)O` (stereo unspecified), the suppression of toxicity in assay [1] is 1.43; in assay [2], 0.

In the case of `CCCC(=O)Nc1ccc(OCC(O)CNC(C)C)c(C(C)=O)c1` (stereo unspecified), the suppression of toxicity amounted to 0 in assay [1] and 2.15 in assay [2].

Consider `CC1(C)O[C@@H]2C[C@H]3C4C[C@H](F)C5=CC(=O)C=CC5(C)[C@@]4(F)[C@@H](O)C[C@]3(C)[C@]2(C(=O)CO)O1` (stereo partly specified), for which the suppression of toxicity stood at 2.86 in assay [1] and 6.43 in assay [2].

Regarding `O=C1N=C(O)CN1/N=C/c1ccc(-c2ccc([N+](=O)[O-])cc2)o1`, the suppression of toxicity in assay [1] was determined as 7.14; in assay [2], 12.9.

Take `CCCCOc1ccc(OCCCN2CCOCC2)cc1`: the suppression of toxicity is 11.4 in assay [1] and 15 in assay [2].

Consider `CC(C)(Oc1ccc(CCNC(=O)c2ccc(Cl)cc2)cc1)C(=O)O`, for which the suppression of toxicity in assay [1] is 5.71; in assay [2] it was 6.43.

For the compound `O=C(CCCN1CC=C(n2c(=O)[nH]c3ccccc32)CC1)c1ccc(F)cc1`, the figures for the suppression of toxicity in assay [1] and in assay [2] were 8.57 and 11.4, respectively.

With `CC(=O)O[C@@H]1CC2C(C)(C)C(=O)C=C[C@]2(C)C2CC[C@@]3(C)[C@H](c4ccoc4)OC(=O)[C@H]4O[C@]43[C@@]21C` (stereo partly specified), the suppression of toxicity in assay [1] and in assay [2] was 0 each time.

Consider `O=C(O)c1cc([N+](=O)[O-])ccc1NCCCc1ccccc1`, for which the suppression of toxicity worked out at 0 in assay [1] and 7.14 in assay [2].

`Cc1ccc(O)cc1`: the suppression of toxicity came out at 1.43 in assay [1] and 2.87 in assay [2].

`O=C(O)c1c2ccccc2cc2ccccc12`: the suppression of toxicity in assay [1] turned out to be 0; in assay [2], 0.715.

Turning to `O=c1c(O)c(-c2ccc(O)cc2O)oc2cc(O)cc(O)c12`, the suppression of toxicity in assay [1] was 12.9; in assay [2], 15.

For the compound `C=CCc1ccccc1OCC(O)CNC(C)C` (stereo unspecified), the suppression of toxicity in assay [1] worked out at 2.85; in assay [2], 2.86.

In the case of `NCCCCCC(=O)O`, the results for the suppression of toxicity in assay [1] and in assay [2] were 5.71 and 1.43, respectively.

For `NCCCCC(N)C(=O)NCC(=O)NC(Cc1cnc[nH]1)C(=O)NC(CCCCN)C(=O)O` (stereo unspecified), the suppression of toxicity in assay [1] and in assay [2] was 0 each time.

As to `CCCc1ncc(C[n+]2ccccc2C)c(N)n1`, the suppression of toxicity in assay [1] stood at 2.85; in assay [2], 5.71.

Take `CC(=O)N[C@@H](CCC(=O)O)C(=O)O`: the suppression of toxicity is 1.43 in assay [1] and 5.71 in assay [2].

Turning to `COc1ccc(-c2coc3cc(O)cc(O)c3c2=O)cc1`, the suppression of toxicity in assay [1] and in assay [2] was 0 throughout.

For `NC(COCc1ccccc1)C(=O)O` (stereo unspecified), the values for the suppression of toxicity in assay [1] and in assay [2] were 0 and 1.43, respectively.

Take `COc1ccc(CCN2CCC(Nc3nc4ccccc4n3Cc3ccc(F)cc3)CC2)cc1`: the suppression of toxicity amounted to 4.29 in assay [1] and 6.43 in assay [2].

For the compound `NCc1ccc(S(N)(=O)=O)cc1`, the figures for the suppression of toxicity in assay [1] and in assay [2] were 2.86 and 5, respectively.

In the case of `C[C@]12C=CC(=O)C=C1CCC1C3C[C@@H](O)[C@](O)(C(=O)CO)[C@@]3(C)C[C@H](O)[C@@]12F` (stereo partly specified), the suppression of toxicity in assay [1] came to 1.43; in assay [2], 5.

As for `Cc1c(C)c2c(c(C)c1O)CCC(C)(CCCC(C)CCCC(C)CCCC(C)C)O2` (stereo unspecified), the figures for the suppression of toxicity in assay [1] and in assay [2] were 2.85 and 11.4, respectively.

For the compound `CC(=O)Oc1cccc(O)c1`, the suppression of toxicity in assay [1] was 2.86; in assay [2], 5.

`c1ccc2[nH]c(-c3cscn3)nc2c1`: the suppression of toxicity in assay [1] came out at 1.43; in assay [2], 5.

For `CCCCCC(C)N` (stereo unspecified), the suppression of toxicity in assay [1] worked out at 2.85; in assay [2], 2.15.

As to `O=C(COc1ccc(Cl)cc1)N1CCN(Cc2ccc3c(c2)OCO3)CC1`, the suppression of toxicity in assay [1] stood at 1.43; in assay [2], 7.14.

As for `C#C[C@]1(O)CCC2C3CCC4=CC(=O)CC[C@@H]4C3CC[C@@]21CC` (stereo partly specified), the suppression of toxicity worked out at 0 in assay [1] and 7.14 in assay [2].

Consider `CN1CCN(C2=Nc3cc(Cl)ccc3Nc3ccccc32)CC1`, for which the suppression of toxicity in assay [1] was 2.85; in assay [2], 9.29.

For the compound `CC/C(=C(\c1ccccc1)c1ccc(OCCN(C)C)cc1)c1ccccc1`, the suppression of toxicity in assay [1] and in assay [2] was 1.43 throughout.

For the compound `Cn1cc[nH]c1=S`, the suppression of toxicity in assay [1] and in assay [2] was 2.86 in each case.

For `CN[C@@H]1[C@H](O)[C@H](NC)[C@H]2O[C@@]3(O)C(=O)C[C@@H](C)O[C@H]3O[C@@H]2[C@H]1O`, the suppression of toxicity in assay [1] amounted to 15.7; in assay [2], 13.6.

`Nc1ccc(S(=O)(=O)Nc2ccccn2)cc1`: the figures for the suppression of toxicity in assay [1] and in assay [2] were 8.57 and 13.6, respectively.

`NC(N)=NCCN1CCCCCCC1`: the suppression of toxicity in assay [1] was found to be 10; in assay [2] it was 2.15.

On to `C[C@H](CCC(=O)O)[C@H]1CCC2C3C(CC[C@@]21C)[C@@]1(C)CC[C@@H](O)C[C@H]1C[C@H]3O` (stereo partly specified), for which the suppression of toxicity in assay [1] was 14.3; in assay [2], 0.715.

As to `CNCCCC12CCC(c3ccccc31)c1ccccc12`, the suppression of toxicity was found to be 2.86 in assay [1] and 13.6 in assay [2].

Turning to `NC(=O)c1cccc(N)c1`, the suppression of toxicity turned out to be 1.43 in assay [1] and 2.86 in assay [2].

Take `CC1=C(/C=C/C(C)=C/C=C/C(C)=C/C(=O)O)C(C)(C)CCC1`: the suppression of toxicity in assay [1] was 0; in assay [2], 1.43.

For the compound `O=C(C1CCCCC1)N1CC(=O)N2CCc3ccccc3C2C1` (stereo unspecified), the suppression of toxicity in assay [1] amounted to 0; in assay [2], 2.15.
